Results are given in words; binding and its absence hold for the method and conditions named. In cells and extracts the contact can be indirect. Binding can be weak; no strength is given. Sequences can lack the tags named with a protein.
Biological target: p85-PI3K-Myc (p85 subunit of PI3K, Myc-tagged)
Assay: co-IP; Flag-tagged MG53 (wild type or S255A) with p85-PI3K-Myc or CaV3-Myc in HEK293 cells

B1: Flag-tagged S255A mutant of MG53 (protein, UniProt Q6ZMU5 1-477)
chain: MSAAPGLLHQELSCPLCLQLFDAPVTAECGHSFCRACLGRVAGEPAADGTVLCPCCQAPTRPQALSTNLQLARLVEGLAQVPQGHCEEHLDPLSIYCEQDRALVCGVCASLGSHRGHRLLPAAEAHARLKTQLPQQKLQLQEACMRKEKSVAVLEHQLVEVEETVRQFRGAVGEQLGKMRVFLAALEGSLDREAERVRGEAGVALRRELGSLNSYLEQLRQMEKVLEEVADKPQTEFLMKYCLVTSRLQKILAEAPPPARLDIQLPIISDDFKFQVWRKMFRALMPALEELTFDPSSAHPSLVVSSSGRRVECSEQKAPPAGEDPRQFDKAVAVVAHQQLSEGEHYWEVDVGDKPRWALGVIAAEAPRRGRLHAVPSQGLWLLGLREGKILEAHVEAKEPRALRSPERRPTRIGLYLSFGDGVLSFYDASDADALVPLFAFHERLPRPVYPFFDVCWHDKGKNAQPLLLVGPEGAEA
binding: binds

From paper PMC9770150
